Our source for the binding values is publication PMC4716144.

Amino acid sequences for entries named in this document (tags omitted).
UniProt Q8VHK1: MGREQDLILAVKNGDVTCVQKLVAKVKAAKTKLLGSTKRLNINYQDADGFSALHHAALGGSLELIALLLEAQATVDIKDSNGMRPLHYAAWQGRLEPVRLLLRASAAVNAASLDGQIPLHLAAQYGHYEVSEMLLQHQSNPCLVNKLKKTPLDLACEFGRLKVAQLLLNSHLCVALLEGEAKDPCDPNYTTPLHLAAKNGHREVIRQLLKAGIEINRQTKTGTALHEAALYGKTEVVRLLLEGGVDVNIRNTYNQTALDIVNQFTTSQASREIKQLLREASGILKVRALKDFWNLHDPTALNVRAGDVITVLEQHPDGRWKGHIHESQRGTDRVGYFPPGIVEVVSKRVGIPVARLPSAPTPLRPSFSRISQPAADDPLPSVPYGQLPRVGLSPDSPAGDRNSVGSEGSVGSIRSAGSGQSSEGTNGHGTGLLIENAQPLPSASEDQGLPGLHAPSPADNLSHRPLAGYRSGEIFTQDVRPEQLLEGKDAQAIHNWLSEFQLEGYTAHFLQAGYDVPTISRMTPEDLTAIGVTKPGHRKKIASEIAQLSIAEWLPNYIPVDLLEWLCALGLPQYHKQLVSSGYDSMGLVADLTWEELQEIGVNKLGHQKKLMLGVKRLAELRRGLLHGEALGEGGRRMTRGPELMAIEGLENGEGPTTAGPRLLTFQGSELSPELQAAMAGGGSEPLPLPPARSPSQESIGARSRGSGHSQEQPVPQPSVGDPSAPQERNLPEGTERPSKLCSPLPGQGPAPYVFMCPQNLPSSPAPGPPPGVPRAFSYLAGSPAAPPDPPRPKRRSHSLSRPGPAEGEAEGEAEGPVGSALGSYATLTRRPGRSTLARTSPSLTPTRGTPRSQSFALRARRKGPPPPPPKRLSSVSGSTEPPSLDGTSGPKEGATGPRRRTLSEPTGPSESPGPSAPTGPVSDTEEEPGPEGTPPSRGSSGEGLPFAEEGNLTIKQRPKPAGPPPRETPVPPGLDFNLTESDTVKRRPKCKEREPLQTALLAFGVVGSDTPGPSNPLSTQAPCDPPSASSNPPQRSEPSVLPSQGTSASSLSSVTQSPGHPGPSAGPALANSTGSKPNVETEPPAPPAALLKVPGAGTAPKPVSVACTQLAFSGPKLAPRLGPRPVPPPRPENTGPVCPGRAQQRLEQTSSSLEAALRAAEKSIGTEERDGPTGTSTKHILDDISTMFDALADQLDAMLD
UniProt Q62167: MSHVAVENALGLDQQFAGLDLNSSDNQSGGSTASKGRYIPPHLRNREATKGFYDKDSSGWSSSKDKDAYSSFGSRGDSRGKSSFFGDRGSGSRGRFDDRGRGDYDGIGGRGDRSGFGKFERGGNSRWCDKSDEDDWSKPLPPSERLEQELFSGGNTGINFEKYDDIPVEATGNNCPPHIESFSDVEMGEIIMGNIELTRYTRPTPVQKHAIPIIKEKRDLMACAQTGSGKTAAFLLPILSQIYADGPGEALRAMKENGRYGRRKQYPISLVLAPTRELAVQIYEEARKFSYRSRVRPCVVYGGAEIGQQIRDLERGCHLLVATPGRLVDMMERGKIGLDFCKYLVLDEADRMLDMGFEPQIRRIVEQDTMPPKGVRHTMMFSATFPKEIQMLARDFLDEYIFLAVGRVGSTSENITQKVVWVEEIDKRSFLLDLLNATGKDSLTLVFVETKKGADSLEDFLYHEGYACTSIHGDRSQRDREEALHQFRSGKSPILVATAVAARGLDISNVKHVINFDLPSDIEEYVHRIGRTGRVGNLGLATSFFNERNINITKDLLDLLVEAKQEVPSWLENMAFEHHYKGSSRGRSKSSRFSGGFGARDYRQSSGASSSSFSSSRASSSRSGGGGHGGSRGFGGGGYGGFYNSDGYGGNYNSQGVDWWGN
UniProt Q9QYR6: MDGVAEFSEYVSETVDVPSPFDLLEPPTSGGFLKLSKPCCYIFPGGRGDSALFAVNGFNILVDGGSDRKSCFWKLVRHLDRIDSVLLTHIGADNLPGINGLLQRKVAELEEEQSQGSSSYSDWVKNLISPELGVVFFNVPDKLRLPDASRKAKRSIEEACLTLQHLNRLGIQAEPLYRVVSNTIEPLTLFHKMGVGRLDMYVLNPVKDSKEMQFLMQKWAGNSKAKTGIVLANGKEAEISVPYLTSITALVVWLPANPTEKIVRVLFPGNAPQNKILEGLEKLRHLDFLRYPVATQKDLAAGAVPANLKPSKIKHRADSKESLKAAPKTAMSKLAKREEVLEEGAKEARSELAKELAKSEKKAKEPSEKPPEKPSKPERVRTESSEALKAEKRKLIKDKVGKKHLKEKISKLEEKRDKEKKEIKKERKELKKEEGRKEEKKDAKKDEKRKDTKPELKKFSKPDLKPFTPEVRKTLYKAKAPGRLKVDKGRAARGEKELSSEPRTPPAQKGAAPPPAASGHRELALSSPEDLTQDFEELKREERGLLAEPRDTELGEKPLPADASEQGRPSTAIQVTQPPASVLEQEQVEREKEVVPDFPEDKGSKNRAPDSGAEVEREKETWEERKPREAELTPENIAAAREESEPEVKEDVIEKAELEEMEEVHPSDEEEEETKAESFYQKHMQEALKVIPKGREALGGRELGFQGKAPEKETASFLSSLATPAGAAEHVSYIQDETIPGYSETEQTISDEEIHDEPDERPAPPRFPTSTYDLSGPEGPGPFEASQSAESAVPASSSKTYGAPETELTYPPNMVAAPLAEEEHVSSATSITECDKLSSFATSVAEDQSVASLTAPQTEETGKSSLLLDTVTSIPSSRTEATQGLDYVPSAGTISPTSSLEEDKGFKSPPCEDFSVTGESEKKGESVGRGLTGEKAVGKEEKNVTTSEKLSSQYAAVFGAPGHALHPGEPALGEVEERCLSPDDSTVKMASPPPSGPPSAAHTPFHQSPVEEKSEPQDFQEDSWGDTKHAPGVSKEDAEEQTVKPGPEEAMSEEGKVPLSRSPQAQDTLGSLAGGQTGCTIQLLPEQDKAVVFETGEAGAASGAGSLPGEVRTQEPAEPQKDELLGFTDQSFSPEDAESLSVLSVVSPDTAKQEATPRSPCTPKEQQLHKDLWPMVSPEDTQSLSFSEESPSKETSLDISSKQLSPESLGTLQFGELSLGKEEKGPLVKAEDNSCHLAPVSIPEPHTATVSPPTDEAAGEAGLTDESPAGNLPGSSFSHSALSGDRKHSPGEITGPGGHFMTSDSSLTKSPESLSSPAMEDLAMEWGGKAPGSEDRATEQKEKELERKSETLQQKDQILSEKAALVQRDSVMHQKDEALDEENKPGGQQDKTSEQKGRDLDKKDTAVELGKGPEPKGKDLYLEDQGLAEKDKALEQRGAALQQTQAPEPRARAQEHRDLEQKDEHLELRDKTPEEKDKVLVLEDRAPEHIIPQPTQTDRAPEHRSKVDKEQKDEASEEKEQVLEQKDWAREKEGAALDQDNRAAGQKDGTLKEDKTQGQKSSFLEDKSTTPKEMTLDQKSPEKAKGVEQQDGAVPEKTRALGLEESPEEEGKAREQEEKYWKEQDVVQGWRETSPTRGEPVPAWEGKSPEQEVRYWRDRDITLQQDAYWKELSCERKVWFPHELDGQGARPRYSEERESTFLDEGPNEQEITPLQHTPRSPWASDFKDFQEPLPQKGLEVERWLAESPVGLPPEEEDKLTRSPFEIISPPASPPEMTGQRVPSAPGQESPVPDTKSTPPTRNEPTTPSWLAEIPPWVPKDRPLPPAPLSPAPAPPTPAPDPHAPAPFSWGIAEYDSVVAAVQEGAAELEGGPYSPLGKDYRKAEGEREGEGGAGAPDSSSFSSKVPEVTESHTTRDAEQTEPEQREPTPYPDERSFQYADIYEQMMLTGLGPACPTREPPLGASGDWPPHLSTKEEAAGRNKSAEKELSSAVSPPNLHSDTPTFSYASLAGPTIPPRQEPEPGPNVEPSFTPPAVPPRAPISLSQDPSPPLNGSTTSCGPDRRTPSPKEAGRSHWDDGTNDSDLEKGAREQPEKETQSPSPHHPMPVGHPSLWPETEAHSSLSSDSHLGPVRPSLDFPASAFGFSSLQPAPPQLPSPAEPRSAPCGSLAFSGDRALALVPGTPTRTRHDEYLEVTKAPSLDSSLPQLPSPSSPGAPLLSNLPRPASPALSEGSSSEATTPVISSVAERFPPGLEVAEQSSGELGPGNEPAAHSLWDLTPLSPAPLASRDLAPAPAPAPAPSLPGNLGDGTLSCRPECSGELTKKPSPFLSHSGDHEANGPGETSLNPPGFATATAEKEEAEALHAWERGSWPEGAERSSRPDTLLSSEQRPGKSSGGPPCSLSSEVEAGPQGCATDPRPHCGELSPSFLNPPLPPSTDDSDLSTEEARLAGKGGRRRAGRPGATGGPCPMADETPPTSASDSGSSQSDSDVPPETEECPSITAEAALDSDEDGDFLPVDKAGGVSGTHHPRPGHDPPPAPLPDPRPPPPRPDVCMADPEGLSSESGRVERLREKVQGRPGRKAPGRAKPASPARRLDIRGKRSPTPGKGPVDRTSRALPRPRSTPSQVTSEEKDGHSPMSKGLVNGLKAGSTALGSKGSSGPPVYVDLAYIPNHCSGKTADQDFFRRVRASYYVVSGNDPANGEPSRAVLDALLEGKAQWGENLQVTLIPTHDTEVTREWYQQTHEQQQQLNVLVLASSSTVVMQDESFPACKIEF
UniProt P54729: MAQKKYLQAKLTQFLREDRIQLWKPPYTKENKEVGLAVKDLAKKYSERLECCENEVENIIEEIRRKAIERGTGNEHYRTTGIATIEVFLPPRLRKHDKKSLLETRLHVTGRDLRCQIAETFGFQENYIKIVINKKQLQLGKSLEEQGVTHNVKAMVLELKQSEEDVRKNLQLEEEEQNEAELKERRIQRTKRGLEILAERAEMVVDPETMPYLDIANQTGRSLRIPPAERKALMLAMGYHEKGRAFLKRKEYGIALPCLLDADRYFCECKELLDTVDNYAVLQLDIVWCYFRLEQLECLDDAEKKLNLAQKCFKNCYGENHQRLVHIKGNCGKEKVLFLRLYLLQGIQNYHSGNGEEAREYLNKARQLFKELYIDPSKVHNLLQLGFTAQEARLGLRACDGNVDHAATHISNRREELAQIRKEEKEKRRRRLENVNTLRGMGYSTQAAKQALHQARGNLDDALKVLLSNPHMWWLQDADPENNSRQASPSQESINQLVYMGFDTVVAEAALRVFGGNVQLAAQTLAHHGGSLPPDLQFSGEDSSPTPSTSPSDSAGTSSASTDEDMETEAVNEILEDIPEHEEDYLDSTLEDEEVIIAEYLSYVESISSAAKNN
UniProt P59048: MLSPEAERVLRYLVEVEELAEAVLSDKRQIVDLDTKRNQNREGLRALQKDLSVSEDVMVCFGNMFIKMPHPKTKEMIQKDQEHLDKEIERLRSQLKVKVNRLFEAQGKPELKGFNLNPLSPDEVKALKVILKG
UniProt Q8CG46: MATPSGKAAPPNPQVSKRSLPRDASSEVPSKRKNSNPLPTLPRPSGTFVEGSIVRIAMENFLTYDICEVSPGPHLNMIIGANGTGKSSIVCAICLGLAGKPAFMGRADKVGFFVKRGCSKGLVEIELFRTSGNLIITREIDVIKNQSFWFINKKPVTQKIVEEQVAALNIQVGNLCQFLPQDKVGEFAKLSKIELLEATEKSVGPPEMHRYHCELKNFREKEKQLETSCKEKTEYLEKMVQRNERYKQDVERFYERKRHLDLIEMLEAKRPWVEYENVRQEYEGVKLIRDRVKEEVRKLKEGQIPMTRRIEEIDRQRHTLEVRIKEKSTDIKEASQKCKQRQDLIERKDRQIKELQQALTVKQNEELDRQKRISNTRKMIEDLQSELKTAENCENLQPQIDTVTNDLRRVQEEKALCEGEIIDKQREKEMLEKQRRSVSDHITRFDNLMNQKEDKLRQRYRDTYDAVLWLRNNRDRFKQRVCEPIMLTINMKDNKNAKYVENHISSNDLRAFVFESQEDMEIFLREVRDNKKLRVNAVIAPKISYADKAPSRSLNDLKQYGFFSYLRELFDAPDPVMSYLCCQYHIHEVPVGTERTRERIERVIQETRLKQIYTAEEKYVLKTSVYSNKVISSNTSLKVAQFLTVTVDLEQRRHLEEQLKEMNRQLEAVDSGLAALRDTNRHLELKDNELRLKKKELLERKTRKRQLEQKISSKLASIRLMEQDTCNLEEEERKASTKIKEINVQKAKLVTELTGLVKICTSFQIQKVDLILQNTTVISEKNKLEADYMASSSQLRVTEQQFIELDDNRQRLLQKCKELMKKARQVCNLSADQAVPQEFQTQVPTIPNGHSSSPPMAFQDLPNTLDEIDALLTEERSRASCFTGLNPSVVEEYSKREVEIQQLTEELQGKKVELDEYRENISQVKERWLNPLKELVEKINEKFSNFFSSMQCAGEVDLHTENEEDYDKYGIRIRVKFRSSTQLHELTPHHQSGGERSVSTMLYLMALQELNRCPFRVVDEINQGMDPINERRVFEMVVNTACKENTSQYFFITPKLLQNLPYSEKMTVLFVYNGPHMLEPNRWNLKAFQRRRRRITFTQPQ

These are yes or no findings as the source states them, for the method shown. In cells and extracts the contact can be indirect. These calls come from enrichment with a bait or labelling near it, and not all partners need be listed. For some of these results: No binding means not detected with the bait.

Test [1] has as its target T1, G protein-coupled receptor kinase interacting protein 2 (mouse (endogenous in pancreas)) (UniProt Q9JLQ2).
T1 sequence: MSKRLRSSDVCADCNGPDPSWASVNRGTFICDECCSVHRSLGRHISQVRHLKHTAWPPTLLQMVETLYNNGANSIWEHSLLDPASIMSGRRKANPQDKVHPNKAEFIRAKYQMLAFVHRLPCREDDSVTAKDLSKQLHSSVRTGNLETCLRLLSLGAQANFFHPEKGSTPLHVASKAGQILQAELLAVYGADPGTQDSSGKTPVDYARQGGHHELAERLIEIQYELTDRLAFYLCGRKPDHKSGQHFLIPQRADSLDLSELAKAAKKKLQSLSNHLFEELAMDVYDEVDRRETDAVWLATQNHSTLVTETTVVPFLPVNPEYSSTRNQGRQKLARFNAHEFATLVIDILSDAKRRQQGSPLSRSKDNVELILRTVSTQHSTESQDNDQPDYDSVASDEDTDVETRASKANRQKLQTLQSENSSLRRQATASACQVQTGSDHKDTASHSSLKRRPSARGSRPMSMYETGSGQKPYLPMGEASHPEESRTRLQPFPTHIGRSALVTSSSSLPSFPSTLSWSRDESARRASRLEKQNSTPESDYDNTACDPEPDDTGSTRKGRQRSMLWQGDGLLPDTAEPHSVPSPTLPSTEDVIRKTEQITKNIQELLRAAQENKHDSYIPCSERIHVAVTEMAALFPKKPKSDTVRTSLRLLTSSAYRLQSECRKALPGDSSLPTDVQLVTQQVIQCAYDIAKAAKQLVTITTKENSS
Kind of test: affinity purification with mass spectrometry; anti-GIT2 immunoprecipitation (pre-immune IgG as negative control) from lysates of whole pancreas of WT or db/db mice, 1 mg/ml protein, 16 h at 4°C, protein A/G agarose, eluted with 4% CHAPS-8M urea, normalised for GIT2 content; nano LC-MS/MS, MASCOT.

Test [2] addresses T1, G protein-coupled receptor kinase interacting protein 2 (mouse (endogenous in pancreas)). As to the kind of experiment: affinity purification with mass spectrometry; as a1, the sample from pancreas of diabetic db/db mice alone (153 co-precipitating proteins), for the proteins that the paper calls lost with metabolic dysfunction.

As to “CASK-interacting protein 2 (from UniProt Q8VHK1 1-1201)”, the binding entry in test [1] is “binds”.
For “DEAD (Asp-Glu-Ala-Asp) box helicase 3, X-linked (from UniProt Q62167 1-662) (enzyme)”, the binding result was “binds” in test [1] and “no binding (only pancreas of diabetic db/db mice)” in test [2].
For “insulin receptor (from UniProt P15208 28-1372)”, in that order: “binds” and “no binding (only pancreas of diabetic db/db mice)”.
On to “microtubule-associated protein 1 A (from UniProt Q9QYR6 1-2776)”, for which the binding entry in test [1] is given as “binds”.
Regarding “negative regulator of ubiquitin-like proteins 1 (from UniProt P54729 1-614)”, the binding entry in test [1] is listed as “binds”; in test [2] it was “no binding (only pancreas of diabetic db/db mice)”.
Regarding “p53 and DNA damage regulated 1 (from UniProt P59048 1-133)”, in test [1], the binding result was “binds”.
For the molecule “structural maintenance of chromosomes 5 (from UniProt Q8CG46 1-1101)”, the results for the binding result in test [1] and in test [2] were “binds” and “no binding (only pancreas of diabetic db/db mice)”, respectively.

B1: insulin receptor substrate 2 (protein, UniProt P81122 1-1321)
chain: MASAPLPGPPASAGGDGPNLNNNNNNNNHSVRKCGYLRKQKHGHKRFFVLRGPGTGGDEASAAGGSPPQPPRLEYYESEKKWRSKAGAPKRVIALDCCLNINKRADAKHKYLIALYTKDEYFAVAAENEQEQEGWYRALTDLVSEGRSGEGGSGTTGGSCSASLPGVLGGSAGAAGCDDNYGLVTPATAVYREVWQVNLKPKGLGQSKNLTGVYRLCLSARTIGFVKLNCEQPSVTLQLMNIRRCGHSDSFFFIEVGRSAVTGPGELWMQADDSVVAQNIHETILEAMKALKELFEFRPRSKSQSSGSSATHPISVPGARRHHHLVNLPPSQTGLVRRSRTDSLAATPPAAKCTSCRVRTASEGDGGAAGGAGTAGGRPMSVAGSPLSPGPVRAPLSRSHTLSAGCGGRPSKVTLAPAGGALQHSRSMSMPVAHSPPAATSPGSLSSSSGHGSGSYPLPPGSHPHLPHPLHHPQGQRPSSGSASASGSPSDPGFMSLDEYGSSPGDLRAFSSHRSNTPESIAETPPARDGSGGELYGYMSMDRPLSHCGRPYRRVSGDGAQDLDRGLRKRTYSLTTPARQRQVPQPSSASLDEYTLMRATFSGSSGRLCPSFPASSPKVAYNPYPEDYGDIEIGSHKSSSSNLGADDGYMPMTPGAALRSGGPNSCKSDDYMPMSPTSVSAPKQILQPRLAAALPPSGAAVPAPPSGVGRTFPVNGGGYKASSPAESSPEDSGYMRMWCGSKLSMENPDPKLLPNGDYLNMSPSEAGTAGTPPDFSAALRGGSEGLKGIPGHCYSSLPRSYKAPCSCSGDNDQYVLMSSPVGRILEEERLEPQATPGAGTFGAAGGSHTQPHHSAVPSSMRPSAIGGRPEGFLGQRCRAVRPTRLSLEGLQTLPSMQEYPLPTEPKSPGEYINIDFGEAGTRLSPPAPPLLASAASSSSLLSASSPASSLGSGTPGTSSDSRQRSPLSDYMNLDFSSPKSPKPSTRSGDTVGSMDGLLSPEASSPYPPLPPRPSTSPSSLQQPLPPAPGDLYRLPPASAATSQGPTAGSSMSSEPGDNGDYTEMAFGVAATPPQPIVAPPKPEGARVASPTSGLKRLSLMDQVSGVEAFLQVSQPPDPHRGAKVIRADPQGGRRRHSSETFSSTTTVTPVSPSFAHNSKRHNSASVENVSLRKSSEGSSTLGGGDEPPTSPGQAQPLVAVPPVPQARPWNPGQPGALIGCPGGSSSPMRRETSVGFQNGLNYIAIDVRGEQGSLAQSQPQPGDKNSWSRTRSLGGLLGTVGGSGASGVCGGPGTGALPSASTYASIDFLSHHLKEATVVKE
In the case of B1, the binding result is on record as “binds” in test [1] and “no binding (only pancreas of diabetic db/db mice)” in test [2].

B2: eukaryotic translation initiation factor 2B (Eif2b2) (protein, UniProt Q99LD9 1-351)
chain: MPGAAAKGSELSERIEGFVETLKRGGGQRSSEDMARETLGLLRRLITDHHWNNAGDLMDLIRREGRRMTAAQPSETTVGNMVRRVLKIIREEYGRLHGRSDESDQQESLHKLLTSGGLSEDFSFHFAPLKANIIEAINELLVELEGTMENIAAQALEHIHSNEVIMTIGYSRTVEAFLKEAARKRKFHVIVAECAPFCQGHEMAVNLSKEGIETTVMTDAAIFAVMSRVNKVIIGTKTILANGSLRAVAGTHTLALAAKHHSTPLIVCAPMFKLSPQFPSEEDSFHKFVAPEEVLPFTEGDILEKVSVHCPVFDYVPPDLITLFISNIGGNAPSYIYRLMSELYHPDDHVL
Consider B2, for which the binding entry in test [1] is reported as “binds”; in test [2], “no binding (only pancreas of diabetic db/db mice)”.

B3: signal sequence receptor delta (protein, UniProt Q62186 24-172)
chain: ACLEPQITPSYYTTSDAVISTETVFIVEISLTCKNRVQNMALYADVSGKQFPVTRGQDVGRYQVSWSLEHKSAHAGTYEVRFFDEESYSLLRKAQRNNEDVSIIPPLFTVSVDHRGTWNGPWVSTEVLAAVIGIVIYYLAFSAKSHIQA
Regarding B3, the binding entry is recorded as “binds” in test [1] and “no binding (only pancreas of diabetic db/db mice)” in test [2].

B4: fatty acid binding protein 2 (protein, UniProt P55050 1-132)
chain: MAFDGTWKVDRNENYEKFMEKMGINVMKRKLGAHDNLKLTITQDGNKFTVKESSNFRNIDVVFELGVNFPYSLADGTELTGAWTIEGNKLIGKFTRVDNGKELIAVREVSGNELIQTYTYEGVEAKRFFKKE
In the case of B4, the binding result is “binds” in test [1] and “no binding (only pancreas of diabetic db/db mice)” in test [2].

B5: G protein-coupled receptor 101 (receptor, UniProt Q80T62 1-511)
chain: MPPSCTNSTQENNGSRVCLPLSKMPISVAHGIIRSVVLLVILGVAFLGNVVLGYVLHRKPNLLQVTNRFIFNLLVTDLLQVALVAPWVVSTAIPFFWPLNIHFCTALVSLTHLFAFASVNTIVVVSVDRYLTIIHPLSYPSKMTNRRSYILLYGTWIAAFLQSTPPLYGWGHATFDDRNAFCSMIWGASPAYTVVSVVSFLVIPLGVMIACYSVVFGAARRQQALLYKAKSHRLEVRVEDSVVHENEEGAKKRDEFQDKNEFQGQDGGGQAEAKGSSSMEESPMVAEGSSQKTGKGSLDFSAGIMEGKDSDEVSNGSMEGLEVITEFQASSAKADTGRIDANQCNIDVGEDDVEFGMDEIHFNDDVEAMRIPESSPPSRRNSTSDPPLPPCYECKAARVIFVIISTYVLSLGPYCFLAVLAVWVDIDTRVPQWVITIIIWLFFLQCCIHPYVYGYMHKSIKKEIQEVLKKLICKKSPPVEDSHPDLHETEAGTEGGIEGKAVPSHDSATSP
Consider B5, for which the binding result is recorded as “binds” in test [1] and “no binding (only pancreas of diabetic db/db mice)” in test [2].

B6: F-box protein 24 (protein, UniProt Q9D417 1-589)
chain: MVKRSCPSCGLEAGSEKKERGNPISVQLFPPELVEHIVSFLPVKDLVALGQTCHYFHEVCDAEGVWRRICRRLSPRIRDQSSGARPWKRAAILNYTKGLYFQAFGGRRRCLSKSVAPMLAHGYRRFLPTKDHVFILDYVGTLFFLKNALVSSTLGQIQWKRACRYVVLCRGAKDFASDPRCDTVYRKYLYVLATREQPAVVGTTGSRACDCVEVYLQSSGQRVFKMTFHHSMSFKQIVLVGQETQRALLLLTEEGKIYSLVVNETQLDQPRSYTVQLALRKVSRCLPHLRVTCMASNQSSTLYITGGTLIPRKQVPKAAELRAPDPPDQGGVYFEVHTPGVYRDLFGTLQAFDPLDHQMPLALSLPAKVLFCALGYNHLGLVDEFGRIFMQGNNRYGQLGTGDKMDRGEPTQVHYLQRPIALWCGLNHSLVLSQTSDFSKELLGCGCGAGGRLPGWPKGSASFVKLHIKVPLCACSLCSTRECLYMLSSHDIEQCPVYRDLPASRVGGSPEPSQGAGAPQDPGGTAQACEEYLSQIHSCPTLQDRMEKMKEIVGWMPLMAAQKDFFWEALDMLQRAAGGAGPDTSTPES
With B6, the binding entry in test [1] was “binds”.
